According to patent US20250326817A1 (LA JOLLA INSTITUTE FOR IMMUNOLOGY, published 2025):
Changes are numbered by the printed parent chain. Names and notes keep the numbering of the source. No constants are given. Whether binding was seen depends on the method and setting. Some binding calls cover weakened binding; strength is not graded here.

Amino acid sequences for entries named in this document (tags omitted). Residues count along the entry.
UniProt Q7TSA3, residues 30-183: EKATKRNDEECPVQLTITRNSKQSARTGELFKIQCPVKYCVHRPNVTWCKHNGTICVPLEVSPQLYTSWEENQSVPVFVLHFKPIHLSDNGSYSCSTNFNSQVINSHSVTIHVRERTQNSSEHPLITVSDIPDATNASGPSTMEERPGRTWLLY

B1: A76D_H86D_L90A (receptor)
chain: QPSCRQEEFLVGDECCPMCNPGYHVKQVCSEHTGTVCDPCPPQTYTADANGASKCLPCGVCDPDMGLLTWQECSSWKDTVCRCIPGYFCENQDGSHCSTCLQHTTCPPGQRVEKRGTHDQDTVCADCLTGTFSLGGTQEECLPWTNCSAFQQEVRRGTNSTDTTCSSQVVYYVVSILLPLVIVGAGIAGFLICTRRHLHTSSVAKELEPFQEQQENTIRFPVTEVGFAETEEETASN
notes: on HEK293 FreeStyle cells; also called mHVEM A76D-H86D-L90A; not shown: mCherry fused at the C-terminus (pmCherry-N1 vector) and any vector linker
B2: A76D_H86D_L90D (receptor)
chain: B1 chain with A52D
notes: on HEK293 FreeStyle cells; also called mHVEM A76D-H86D-L90D; not shown: mCherry fused at the C-terminus (pmCherry-N1 vector)
B3: H86A-L90A (receptor)
chain: B1 chain with D38A, D48A
notes: on HEK293 FreeStyle cells; also called mHVEM H86A-L90A; not shown: mCherry reporter (and any vector linker) fused at the cytoplasmic C-terminus (pmCherry-N1)
B4: H86D-L90D (receptor)
chain: B1 chain with D38A, A52D
notes: on HEK293 FreeStyle cells; also called mHVEM H86D-L90D; not shown: mCherry reporter (and any vector linker) fused at the cytoplasmic C-terminus (pmCherry-N1)
B5: H86D-L90R (receptor)
chain: B1 chain with D38A, A52R
notes: on HEK293 FreeStyle cells; also called mHVEM H86D-L90R; not shown: mCherry reporter (and any vector linker) fused at the cytoplasmic C-terminus (pmCherry-N1)
B6: H86R-L90A (receptor)
chain: B1 chain with D38A, D48R
notes: on HEK293 FreeStyle cells; also called mHVEM H86R-L90A; not shown: mCherry reporter (and any vector linker) fused at the cytoplasmic C-terminus (pmCherry-N1)

Molecular target: mouse BTLA, soluble protein (analyte of the Octet assay) (mouse) (UniProt Q7TSA3)
Test: cell-protein flow cytometry (mHVEM-mCherry cells + mBTLA-His/anti-His green)

Row | Binder | binding
1 | B1 | binds
2 | B2 | binds
3 | B3 | binds
4 | B4 | binds
5 | B5 | binds
6 | B6 | binds
